{
  "sequences": {"note": "Amino acid sequences for entries named in this document (tags omitted).", "UniProt Q0JBA9, entry or part of it": "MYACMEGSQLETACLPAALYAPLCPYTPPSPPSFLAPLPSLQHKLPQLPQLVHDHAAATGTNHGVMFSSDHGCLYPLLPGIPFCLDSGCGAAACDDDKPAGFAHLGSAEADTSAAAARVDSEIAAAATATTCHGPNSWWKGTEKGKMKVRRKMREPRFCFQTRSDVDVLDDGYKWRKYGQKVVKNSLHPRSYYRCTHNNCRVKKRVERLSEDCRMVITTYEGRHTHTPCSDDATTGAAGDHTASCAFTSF"},
  "source": "paper PMC7819943",
  "about": "“Rice protein-binding microarrays: a tool to detect cis-acting elements near promoter regions in rice”",
  "note": "This is one part of the list.",
  "data": [
    {"biological_target": "OsWRKY34 (Oryza sativa, UniProt Q0JBA9 1-250)", "test": "protein-binding microarray (RPBM); PBS, 2% BSA, 51.3 ng/ul salmon testes DNA, 50 uM zinc acetate, 200 nM TF, 25 C, 1 h; high values mean tight binding", "settings": "protein: recombinant; tags: N-terminal polyhistidine and DsRed monomer fusion (pET32a); label: CyDye5-dUTP incorporated in the synthesized complementary strand; 3' TTTTT single-stranded linker to array surface; dsDNA, one strand shown", "in_short": "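For the binding signal, per-feature fluorescence intensity was read in arbitrary units on an Axon 4000B scanner. Before scanning, a 2% BSA-blocked custom Agilent array made double-stranded with Cy5-dUTP was washed after 1 h at 25 °C with 200 nM protein and 50 µM zinc acetate. The proteins were Ni–NTA-purified transcription factors with N-terminal polyhistidine and DsRed fusions, expressed in E. coli BL21-CodonPlus.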", "values": [
      {"sequence": "CCCATGTCCCTGGTAAAACATTCCCTGACCACCTGCTCCACGGAGTCACCTAGTGCAG", "binding signal": "9270 fluorescence intensity (a.u.)"},
      {"sequence": "CAAATGAAGGCTACATGGGCGGGTGTTCGGTAGTCAAGATCGGAGTCACCTAGTGCAG", "binding signal": "11400 fluorescence intensity (a.u.)"},
      {"sequence": "GTGTTGAGATTTAATCTGTTTCATGAATTCTTCTGTTTTGCGGAGTCACCTAGTGCAG", "binding signal": "8820 fluorescence intensity (a.u.)"},
      {"sequence": "ACTTCTCGCTTCCGCTCCACGCCTCGCTGCCTGCCGCTCCCGGAGTCACCTAGTGCAG", "binding signal": "10900 fluorescence intensity (a.u.)"},
      {"sequence": "CGAACAAATCCCTATCCTGCATACCGCCATCGTCTCTTTCCGGAGTCACCTAGTGCAG", "binding signal": "9950 fluorescence intensity (a.u.)"},
      {"sequence": "CTCCTCCCAGAAACCGCACGTGCTGCCGCCCTATCCGATGCGGAGTCACCTAGTGCAG", "binding signal": "9630 fluorescence intensity (a.u.)"},
      {"sequence": "ACATGTGCATGAGTGCATCTGCATTTTCCTCCGTGCTTATCGGAGTCACCTAGTGCAG", "binding signal": "8540 fluorescence intensity (a.u.)"},
      {"sequence": "GCCACTACTCAACTCCCTTTGCCGTGTCCGTTGCCGTGTTCGGAGTCACCTAGTGCAG", "binding signal": "12000 fluorescence intensity (a.u.)"},
      {"sequence": "ACCTGACCAAATACTACTCACGAATGGTATCTCTGGTTTTCGGAGTCACCTAGTGCAG", "binding signal": "8830 fluorescence intensity (a.u.)"},
      {"sequence": "ATCCCACCACCTCGGCCTCACTGAGATCTCCGACTCCGATCGGAGTCACCTAGTGCAG", "binding signal": "10400 fluorescence intensity (a.u.)"},
      {"sequence": "AACTTGGTGGCTTTATGCTCCCACCCACTCGCTACCACTTCGGAGTCACCTAGTGCAG", "binding signal": "8210 fluorescence intensity (a.u.)"},
      {"sequence": "ACCTTTTTCTTTGTTTGTTTTCTGTTATTGAAGGGATTATCGGAGTCACCTAGTGCAG", "binding signal": "13100 fluorescence intensity (a.u.)"},
      {"sequence": "GCTCCTCGCCGTCCTTCACGGCCTCGACGTGCAGCGCCGCCGGAGTCACCTAGTGCAG", "binding signal": "8580 fluorescence intensity (a.u.)"},
      {"sequence": "TCCTGATTCCCCGAATTATACCGTCCAGTTGCTCTCCTCCCGGAGTCACCTAGTGCAG", "binding signal": "8890 fluorescence intensity (a.u.)"},
      {"sequence": "CCACCCTTTTGTTTGTATATAGTCAGTGAGTATGTTCGATCGGAGTCACCTAGTGCAG", "binding signal": "8360 fluorescence intensity (a.u.)"},
      {"sequence": "ACTGGTATTTTTGCGTCGATTTTGGACTTGTAGTCTTTGTCGGAGTCACCTAGTGCAG", "binding signal": "10100 fluorescence intensity (a.u.)"},
      {"sequence": "GCAAATGACTTAAGTGGTACAATTCTGCTCTTTTCTCTCTCGGAGTCACCTAGTGCAG", "binding signal": "9350 fluorescence intensity (a.u.)"},
      {"sequence": "AGTTATACTTCTACATCATTAATTTGTTTGACCATACGACCGGAGTCACCTAGTGCAG", "binding signal": "9120 fluorescence intensity (a.u.)"},
      {"sequence": "CGCCCATGAAAATGGCCTGTTTCCCGGCTCGTCTACCGTCCGGAGTCACCTAGTGCAG", "binding signal": "8090 fluorescence intensity (a.u.)"},
      {"sequence": "GTCCAGGTGGGGTCCACCCGCGCCTTATCCTCAGCCACGACGGAGTCACCTAGTGCAG", "binding signal": "9360 fluorescence intensity (a.u.)"},
      {"sequence": "TCCTTCTCTCAGACTCTCACTCCACTCCACTCTATTAATCCGGAGTCACCTAGTGCAG", "binding signal": "9680 fluorescence intensity (a.u.)"},
      {"sequence": "TAGCTCTTGTACTATGACAGTTTTACTGATGTACCCCGGGCGGAGTCACCTAGTGCAG", "binding signal": "14600 fluorescence intensity (a.u.)"},
      {"sequence": "TCCTTTCTTTTGTAGGCACTTTTCTATTCAGCTCTCTTGTCGGAGTCACCTAGTGCAG", "binding signal": "9220 fluorescence intensity (a.u.)"},
      {"sequence": "CTGATGCTCTCACTCACCACTGTAAACTAGCTTGTTCTTACGGAGTCACCTAGTGCAG", "binding signal": "9290 fluorescence intensity (a.u.)"},
      {"sequence": "CCGGCGCGACGCGAGTGCTCTTTTCCCGCGCTTTTTTTTCCGGAGTCACCTAGTGCAG", "binding signal": "10800 fluorescence intensity (a.u.)"},
      {"sequence": "TTTCAAGCACAACTTTTCTTTTTATATTTGCACAATTTTTCGGAGTCACCTAGTGCAG", "binding signal": "10000 fluorescence intensity (a.u.)"},
      {"sequence": "GCCATCTCGTCTCCACCATTTACCAGGACAATGCCTTTAACGGAGTCACCTAGTGCAG", "binding signal": "10800 fluorescence intensity (a.u.)"},
      {"sequence": "AGAGCCCAGATGTTTACTTGTTCTACCACTTCAACTCATGCGGAGTCACCTAGTGCAG", "binding signal": "8120 fluorescence intensity (a.u.)"},
      {"sequence": "CCCTTTGCTGATGTGCTCGCCTGCGCTTTGACCACCGCTTCGGAGTCACCTAGTGCAG", "binding signal": "11100 fluorescence intensity (a.u.)"},
      {"sequence": "TCATCTGATTCCTGCGTTTTTCCTGTGGTCCAATCAAACGCGGAGTCACCTAGTGCAG", "binding signal": "8720 fluorescence intensity (a.u.)"},
      {"sequence": "CCTCATCCAATCCCAGCCGTCCATCCACCATCCAACGCCTCGGAGTCACCTAGTGCAG", "binding signal": "11500 fluorescence intensity (a.u.)"},
      {"sequence": "TATGGACAGATTTTTCACATTTTGATGCTCTCTACCGATCCGGAGTCACCTAGTGCAG", "binding signal": "9650 fluorescence intensity (a.u.)"},
      {"sequence": "ACCTGGTCACCCTGCGATCTTCTGCTTTGTGAATAATAAGCGGAGTCACCTAGTGCAG", "binding signal": "11400 fluorescence intensity (a.u.)"},
      {"sequence": "CACAATCCACCTCCAATTCGATACAGGGAGGGTCCATTTGCGGAGTCACCTAGTGCAG", "binding signal": "9220 fluorescence intensity (a.u.)"},
      {"sequence": "ACTAATTAGCAGTTCCTTTTTCATTGTAATTTATTTGTCGCGGAGTCACCTAGTGCAG", "binding signal": "8890 fluorescence intensity (a.u.)"},
      {"sequence": "AGTAGTCTTTTGTCTCTTCTTTATTTTAGTTTTTTTTTCTCGGAGTCACCTAGTGCAG", "binding signal": "12100 fluorescence intensity (a.u.)"},
      {"sequence": "CGCTGACGCCATCCACGCTTTCGTTTCCTTCCATTTTAGACGGAGTCACCTAGTGCAG", "binding signal": "12600 fluorescence intensity (a.u.)"},
      {"sequence": "CCTGTCCGTGTCCCGCCTACGAATTGCCGCCACGCCGATCCGGAGTCACCTAGTGCAG", "binding signal": "11300 fluorescence intensity (a.u.)"},
      {"sequence": "ATATATCCATGCGAACTTCGCTCCAATAGTGAATTTTATCCGGAGTCACCTAGTGCAG", "binding signal": "8900 fluorescence intensity (a.u.)"},
      {"sequence": "GCCTCATTCATCGATGAGAACATATTCTATTTTCTCGAGACGGAGTCACCTAGTGCAG", "binding signal": "8190 fluorescence intensity (a.u.)"},
      {"sequence": "TCATTCACCATCGATTCCTCTCTCGGCTGCTTGCCTTCTCCGGAGTCACCTAGTGCAG", "binding signal": "11300 fluorescence intensity (a.u.)"},
      {"sequence": "TCCTTTTGTCTTCCTCTAAACAAATTCTCTCTTAAGCTTTCGGAGTCACCTAGTGCAG", "binding signal": "8060 fluorescence intensity (a.u.)"}
    ]}
  ]
}
